Laboratory results from PubChem BioAssay AID2417 (National Center for Advancing Translational Sciences (NCATS), 2010).
Hit rate of the full screen: of about 140,000 compounds, about 4,300 (3.1%) were called active. Inconclusive results, whose numbers are uncertain, are shown with a selection of clear calls.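 Rule for the calls: active = readout at or below -70, meaning at least 70% loss of cells showing the perinucleolar compartment, a nuclear body marking cancer cells; inconclusive = readout between -30 and a set limit; inactive = the rest.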

Test: High Content Assay for Compounds that inhibit the Assembly of the Perinucleolar Compartment;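 note: plate controls were DMSO wells for no effect and camptothecin positive control wells for full effect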
Settings: PC3M PTB-GFP, PNC prevalence imaging, 16 h; at 10 µM; active compounds read low
Procedure, shortened: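 PC3M cells stably expressing PTB-GFP, 750–1000 cells/well, treated 16 h at 37 °C with compound (23 nl of library stock), in duplicate. After paraformaldehyde fixation and Hoechst stain, imaged at 20x; PNC prevalence scored by image analysis.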

Row | SMILES | activity change (PNC), negative = inhibition
1 | CC1=C(CC/C(C)=N/NC(N)=S)C(C)(C)CCC1 | inconclusive: -57.3%
2 | C#CC[N+]1(CC#Cc2ccc(C#CC[N+]3(CC#C)CCOCC3)cc2)CCOCC1 | inconclusive: -78.5%
3 | O=C(Oc1ccccc1)c1cc2ccccc2o1 | inactive: -5.91%
4 | Cc1cc([N+](=O)[O-])nn1CCCC(=O)Nc1cc(Oc2ccccc2)cc([N+](=O)[O-])c1 | inactive: -7.59%
5 | COc1ccc(N2CCN(Cc3nc4c(c(=O)n(C)c(=O)n4C)n3C(C)C(C)=O)CC2)cc1 (centres undefined) | inconclusive: -46.1%
6 | CCOC(=O)c1cc(-c2ccc(OC(F)F)cc2)nc2c1c(=O)[nH]c(=O)n2C | active: -84%
7 | COc1ccccc1NC(=O)C1=C(C)Nc2nc(-c3cccs3)nn2C1c1cccnc1 (centres undefined) | inactive: -25.9%
8 | CCn1c(SCC(=O)NCc2ccc3c(c2)OCO3)nnc1-c1cccs1 | inconclusive: -34%
9 | CC(=O)c1ccc(N2CCN(C(=O)C3CCC3)CC2)cc1 | inconclusive: -62.7%
10 | C#CCn1c(=NC(=O)CN2C(=O)CCC2=O)sc2cc(S(N)(=O)=O)ccc21 | inconclusive: -44.2%
11 | Cc1nc(=S)c2ccccc2[nH]1 | inactive: -29.1%
12 | CCc1noc(C)c1C(=O)Nc1nc(-c2ccc(Cl)cc2Cl)c(C)s1 | inactive: 3.82%
13 | CCCCOc1ccc(Cl)cc1CSc1n[nH]c(C)n1 | inactive: -1.04%
14 | CC(C)CCNC(=O)C(c1cccnc1)N(CCc1ccccc1)C(=O)Cn1nnc2ccccc21 (centres undefined) | inactive: -22%
15 | CSc1ccccc1-c1nnc(-c2ccc(Cl)cc2Cl)o1 | inconclusive: -34.5%
16 | O=C(CN1CCCCCC1)Nc1ccccc1F | active: -84.6%
17 | CNC(=O)CN(Cc1ccccc1)S(=O)(=O)c1ccccc1 | inactive: -16.2%
18 | Cc1n[nH]c(=S)n(/N=C/c2ccccn2)c1=O | inactive: 21.8%
19 | CCOC(=O)C1=C(N)OC2=C(C(=O)CC(C)(C)C2)C1c1ccoc1 (centres undefined) | inactive: 12.6%
20 | CCOC(=O)c1sc2nc(C3CC3)cc(-c3ccc(OC)cc3)c2c1N | inconclusive: -39.4%
21 | CCCCCOC(=O)C1[C@H]2C(=O)N(CCCOC)C[C@]23C=C[C@H]1O3 (some centres undefined) | inconclusive: -32.8%
22 | Cc1ccc(NC(=O)COC(=O)C2(c3ccc(Cl)cc3)CCCC2)cc1 | inconclusive: -32%
23 | COc1ccc(CNS(=O)(=O)c2ccc(OC)cc2)cc1 | inactive: -11.6%

Row | SMILES | activity change (PNC), negative = inhibition
24 | Cc1c(C(=O)Nc2ccc(Cl)cc2)c2ccccn2c1C(=O)c1ccc(F)cc1 | inconclusive: -33.8%
25 | Cc1ccc(-n2c3nc(=O)[nH]c(=O)c-3cc3c(C)nn(-c4ccccc4)c32)c(C)c1 | inconclusive: -76.4%
26 | O=C(/C=C/c1ccc(Cl)cc1)NCc1ccncc1 | inconclusive: -38.1%
27 | CCN(CC)CCCn1c(=S)[nH]c2cc(C(=O)OC)ccc2c1=O | inconclusive: -55%
28 | O=C(CSc1nc2ccccc2[nH]1)N=Nc1c(O)[nH]c2ccccc12 | inactive: 10%
29 | COc1ccc(/C=C/C(=O)NCC(=O)N/N=C/c2cc(Br)ccc2OCc2ccccc2)cc1 | inconclusive: -32.3%
30 | O=C(CSc1nc2cc(S(=O)(=O)N3CCOCC3)ccc2o1)NC1CCCc2ccccc21 (centres undefined) | inconclusive: -40%
31 | COC(C(=O)Nc1ccc(F)cc1)c1ccccc1 (centres undefined) | inconclusive: -36.3%
32 | CCN(CC)S(=O)(=O)c1cccc(C(=O)N[C@H](C(=O)NCc2ccc(Cl)cc2)C(C)C)c1 | inactive: -28.7%
33 | COc1ccccc1NS(=O)(=O)c1cc(NC(=O)/C=C/c2cccs2)ccc1N1CCOCC1 | inactive: -22.6%
34 | CN(C)CCCN1C(=O)C(=O)/C(=C(/O)c2ccncc2)C1c1cccc(Br)c1 (centres undefined) | inconclusive: -37%
35 | CC1(C)NC(=O)N(CC(=O)Nc2nc(-c3ccc(F)cc3)cs2)C1=O | inconclusive: -46.6%
36 | CN(CC1COc2ccccc2O1)C(=S)Nc1ccccc1F (centres undefined) | inconclusive: -36.3%
37 | Cc1ccc(OCC(=O)NNC(=O)c2cc(C)[nH]n2)cc1 | inconclusive: -51.3%
38 | Cc1cc(=O)oc(C)c1C(=O)NCc1ccc(F)cc1 | inconclusive: -44%
39 | NS(=O)(=O)c1ccc(NCc2c(F)cccc2Cl)cc1 | inconclusive: -39.6%
40 | CCOc1ccc(Cc2nn[nH]n2)cc1 | inconclusive: -53.8%
41 | O=C1CC(N(CCc2ccccc2)C(=S)Nc2cc(Cl)ccc2Cl)C(=O)N1c1c(Cl)cccc1Cl (centres undefined) | inconclusive: -31.5%
42 | CCCN(CCC)c1nc2ccccc2nc1C(C#N)C(=O)OCCOC (centres undefined) | inconclusive: -31%
43 | O=C(COc1ncnc2sccc12)Nc1ccc2c(c1)OCCO2 | active: -112%
44 | CC(C)Cn1c(N)c(C(=O)COC(=O)c2cc(-c3ccccc3)nc3ccccc23)c(=O)n(C)c1=O | inactive: 62.1%
45 | O=C1C=C(c2ccccc2)CC(c2cccs2)C1n1cnc([N+](=O)[O-])c1 (centres undefined) | inconclusive: -36.8%
46 | COCCn1c(=O)[nH]c2cc(C(=O)NCCc3ccc(OC)c(OC)c3)ccc2c1=O | inconclusive: -54%

Row | SMILES | activity change (PNC), negative = inhibition
47 | COc1ccccc1Oc1coc2c(CN(C)C)c(O)ccc2c1=O | inactive: 64.9%
48 | O=S(=O)(NC1CCCCCC1)c1ccc(Br)s1 | inconclusive: -79.5%
49 | Cc1cc(C(=O)CSc2nnc(-c3ccccc3F)o2)c(C)n1Cc1cccs1 | inconclusive: -49.4%
50 | CCOC(=O)c1c(CN2CCOCC2)n(-c2ccccc2)c2cc(Br)c(O)cc12 | inactive: 39.3%
51 | CC1CN(C(=O)c2cccs2)CCN1C(=O)c1cccs1 (centres undefined) | inactive: -17.8%
52 | Cc1nc2ccc(S(=O)(=O)N(C)CC(=O)N3CCc4ccccc43)cc2s1 | inconclusive: -67.1%
53 | COCC(=O)N(Cc1ccco1)c1nnc(C2CCOC2)s1 (centres undefined) | inconclusive: -52.7%
54 | Cn1c2ccccc2c(=O)c2c(=O)n(C3CCCCC3)c(-c3cccs3)nc21 | inactive: -2.71%
55 | CCC(=O)Nc1ccc(NC(=S)Nc2ccccc2)cc1 | inconclusive: -78.9%
56 | N=c1c2c3c(sc2ncn1Cc1ccccc1)CCCC3 | inconclusive: -69.2%
57 | COC1(OC)N=C(NC(=O)Nc2ccccc2)C2(C#N)C(c3ccccc3)C12C#N (centres undefined) | inconclusive: -52.6%
58 | COc1ccc2nc(SCC(N)=O)[nH]c2c1 | inactive: -18.8%
59 | Cc1ccc2nc(NCCO)nc(-c3ccccc3)c2c1 | inactive: 20.2%
60 | Cc1nn(CCC(=O)NNC(=S)NCC(C)C)c(C)c1Br | active: -112%
61 | O=C(CC12CC3CC(C1)CC(CC(=O)NC1=NCCS1)(C3)C2)NC1=NCCS1 | inconclusive: -55.6%
62 | CC(NC(=O)c1nn(C)c(=O)c2ccccc12)c1ccccc1 (centres undefined) | inactive: 38.9%
63 | O=C(COc1ccc2ccccc2c1Br)N1CCN(c2ccccn2)CC1 | inconclusive: -39.4%
64 | C=CCc1ccc(OCCCCCN2CCOCC2)c(OC)c1 | inconclusive: -31.5%
65 | O=C(Nc1ccccc1)C1Cc2ccccc2CN1C(=O)c1ccco1 (centres undefined) | inactive: 16.8%
66 | O=C(/C=C/c1cccc([N+](=O)[O-])c1)N1CCN(c2ccc(F)cc2)CC1 | inconclusive: -50.1%
67 | CCCC1=Nc2cc(C(=O)NCCCOCC)ccc2Sc2ccccc21 | inconclusive: -68.6%
68 | O=C(c1nn(Cc2ccccc2)c(=O)c2ccccc12)N1CCN(C/C=C/c2ccccc2)CC1 | inactive: 36.6%
69 | Cc1ccc(-c2c3c(=O)n(C)c(=O)n(C)c3cn2N2CCOCC2)cc1 | inconclusive: -50%

Copied from the list.
activity change (PNC), negative = inhibition with `CCN(CC)CCCn1c(=S)[nH]c2cc(C(=O)OC)ccc2c1=O` is entered as inconclusive: -55%
activity change (PNC), negative = inhibition with `CCOC(=O)c1sc2nc(C3CC3)cc(-c3ccc(OC)cc3)c2c1N` is entered as inconclusive: -39.4%
activity change (PNC), negative = inhibition with `Cc1nc2ccc(S(=O)(=O)N(C)CC(=O)N3CCc4ccccc43)cc2s1` is entered as inconclusive: -67.1%

Next results

Row | SMILES | activity change (PNC), negative = inhibition
70 | CCN(CC)S(=O)(=O)c1cccc(-c2nnc(C(=O)c3ccc(C(F)(F)F)cc3)o2)c1 | inconclusive: -31.5%
71 | O=C(CCCCC(=O)N1CCN(c2ccccc2)CC1)N1CCN(c2ccccc2)CC1 | inactive: 18.9%
72 | O=S(=O)(c1ccc(N2CCOCC2)cc1)N1CCOCC1 | inactive: 0.763%
73 | CC(C)(C)NS(=O)(=O)c1ccc(CCC(=O)O)cc1 | inconclusive: -46.1%
74 | OC(CNc1nc2ccccc2s1)c1ccccc1 (centres undefined) | active: -81.6%
75 | Cn1cnc(S(=O)(=O)Nc2ccc(C(F)(F)F)cc2)c1 | inconclusive: -40.9%
76 | O=C(CSc1ccc2nnc(-c3ccccc3)n2n1)N1CCCc2ccccc21 | inconclusive: -38.4%
77 | COc1ccc(-n2nnnc2SCC(=O)Nc2nnc(C)s2)cc1 | inconclusive: -35.6%
78 | CCOC(=O)c1c(NC(=O)c2ccccc2N(C)S(=O)(=O)c2ccccc2)sc2c1CCCC2 | inactive: 46.4%
79 | Cc1ccc(C(=O)NC2CC3CCCC(C2)N3C(=O)NC2CCCCC2)cc1 (centres undefined) | inconclusive: -47.6%
80 | CCCn1c(SCC(=O)Nc2cc(S(=O)(=O)N3CCOCC3)ccc2OC)n[nH]c1=O | inactive: 8.33%
81 | Cc1noc(C)c1CSc1nc2ccccc2c(=O)n1-c1ccc(F)cc1F | inconclusive: -33.9%
82 | Cc1cc(C(=O)Nc2nnc(-c3ccccc3)s2)no1 | active: -98.4%
83 | COc1ccc(/C=C/C=C2\N=C(SC)SC2=O)cc1 | inactive: 35.1%
84 | Nn1c(SCC(=O)Nc2ccc3c(c2)OCO3)nnc1C1CCCCC1 | inactive: -17%
85 | Cc1ccc(S(=O)(=O)NC2=NCN(Cc3cccnc3)CN2)cc1 | inconclusive: -67.6%
86 | C=C1C(=O)O[C@H]2C1CC[C@@](C)(O)C13C=CC(C)(C21)C1(C3)C(=O)O[C@@H]2C3C(C)=CCC3[C@](C)(O)C[C@H](OC(C)=O)C21 (some centres undefined) | inconclusive: -54.4%
87 | O=C(Nc1ccc(Cc2ccncc2)cc1)C1CC1 | inconclusive: -41.1%
88 | CCCc1nnc(NC(=O)c2cc(OC)cc(OC)c2)s1 | inconclusive: -34.9%
89 | O=S(=O)(Nc1ncn[nH]1)c1ccc2ccccc2c1 | inconclusive: -56.1%
